This is one part of the list.
Legend:
Assay in all cases: glycan array binding signal (z-score within array); higher = stronger binding
Conditions in all cases: glycan notation: IUPAC condensed, linker removed
Neu5Ac(a2-6)Gal = target: Neu5Ac(a2-6)Gal
Outline: (§1)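 Arrays were curated from the Consortium for Functional Glycomics database, 3228 in total, and kept only where the protein sequence was available. Binding is expressed as a within-array Z-score. This score was averaged across arrays of the same protein sequence at different concentrations or buffers and across linkers, and negative values can be read as non-binding.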

Neu5Ac(a2-6)Gal(b1-4)Glc = target: Neu5Ac(a2-6)Gal(b1-4)Glc
Outline: as §1

[1] = target: Neu5Ac(a2-6)Gal(b1-4)GlcNAc
Outline: as §1

[2] = target: Neu5Ac(a2-6)Gal(b1-4)GlcNAc(b1-2)Man(a1-3)Man(b1-4)GlcNAc(b1-4)GlcNAc
Outline: as §1

[3] = target: Neu5Ac(a2-6)Gal(b1-4)GlcNAc(b1-2)Man(a1-3)[Gal(b1-4)GlcNAc(b1-2)Man(a1-6)]Man(b1-4)GlcNAc(b1-4)GlcNAc
Outline: as §1

[4] = target: Neu5Ac(a2-6)Gal(b1-4)GlcNAc(b1-2)Man(a1-3)[GlcNAc(b1-2)Man(a1-6)]Man(b1-4)GlcNAc(b1-4)GlcNAc
Outline: as §1

[5] = target: Neu5Ac(a2-6)Gal(b1-4)GlcNAc(b1-2)Man(a1-3)[GlcNAc(b1-2)Man(b1-4)GlcNAc(b1-2)Man(a1-6)]Man(b1-4)GlcNAc(b1-4)GlcNAc
Outline: as §1

[6] = target: Neu5Ac(a2-6)Gal(b1-4)GlcNAc(b1-2)Man(a1-3)[Man(a1-6)]Man(b1-4)GlcNAc(b1-4)GlcNAc
Outline: as §1

[7] = target: Neu5Ac(a2-6)Gal(b1-4)GlcNAc(b1-2)Man(a1-3)[Neu5Ac(a2-6)Gal(b1-4)GlcNAc(b1-2)Man(a1-6)]Man(b1-4)GlcNAc(b1-4)GlcNAc
Outline: as §1

[8] = target: Neu5Ac(a2-6)Gal(b1-4)GlcNAc(b1-2)Man(a1-6)Man(b1-4)GlcNAc(b1-4)GlcNAc
Outline: as §1

[9] = target: Neu5Ac(a2-6)Gal(b1-4)GlcNAc(b1-2)Man(a1-6)[Gal(b1-4)GlcNAc(b1-2)Man(a1-3)]Man(b1-4)GlcNAc(b1-4)GlcNAc
Outline: as §1

[10] = target: Neu5Ac(a2-6)Gal(b1-4)GlcNAc(b1-2)Man(a1-6)[GlcNAc(b1-2)Man(a1-3)]Man(b1-4)GlcNAc(b1-4)GlcNAc
Outline: as §1

[11] = target: Neu5Ac(a2-6)Gal(b1-4)GlcNAc(b1-2)Man(a1-6)[Man(a1-3)]Man(b1-4)GlcNAc(b1-4)GlcNAc
Outline: as §1

[12] = target: Neu5Ac(a2-6)Gal(b1-4)GlcNAc(b1-3)Gal(b1-3)GlcNAc
Outline: as §1

[13] = target: Neu5Ac(a2-6)Gal(b1-4)GlcNAc(b1-3)Gal(b1-4)GlcNAc
Outline: as §1

[14] = target: Neu5Ac(a2-6)Gal(b1-4)GlcNAc(b1-3)Gal(b1-4)GlcNAc(b1-3)Gal(b1-4)GlcNAc
Outline: as §1

[15] = target: Neu5Ac(a2-6)Gal(b1-4)GlcNAc(b1-3)Gal(b1-4)[Fuc(a1-3)]GlcNAc(b1-3)Gal(b1-4)[Fuc(a1-3)]GlcNAc
Outline: as §1

[16] = target: Neu5Ac(a2-6)Gal(b1-4)GlcNAc(b1-3)GalNAc
Outline: as §1

[17] = target: Neu5Ac(a2-6)Gal(b1-4)GlcNAc6S
Outline: as §1

Neu5Ac(a2-6)GalNAc = target: Neu5Ac(a2-6)GalNAc
Outline: as §1

[18] = target: Neu5Ac(a2-6)GalNAc(b1-4)GlcNAc
Outline: as §1

[19] = target: Neu5Ac(a2-6)GlcNAc(b1-4)GlcNAc
Outline: as §1

[20] = target: Neu5Ac(a2-6)GlcNAc(b1-4)GlcNAc(b1-4)GlcNAc
Outline: as §1

Neu5Ac(a2-8)Neu5Ac = target: Neu5Ac(a2-8)Neu5Ac
Outline: as §1

[21] = target: Neu5Ac(a2-8)Neu5Ac(a2-3)Gal(b1-4)Glc
Outline: as §1

[22] = target: Neu5Ac(a2-8)Neu5Ac(a2-3)[GalNAc(b1-4)]Gal(b1-4)Glc
Outline: as §1

[23] = target: Neu5Ac(a2-8)Neu5Ac(a2-8)Neu5Ac
Outline: as §1

[24] = target: Neu5Ac(a2-8)Neu5Ac(a2-8)Neu5Ac(a2-3)Gal(b1-4)Glc
Outline: as §1

[25] = target: Neu5Ac(a2-8)Neu5Ac(a2-8)Neu5Ac(a2-3)[GalNAc(b1-4)]Gal(b1-4)Glc
Outline: as §1

[26] = target: Neu5Ac(a2-8)Neu5Ac(a2-8)Neu5Ac(a2-8)Neu5Ac(a2-3)[GalNAc(b1-4)]Gal(b1-4)Glc
Outline: as §1

[27] = target: Neu5Ac(b2-6)Gal(b1-4)GlcNAc
Outline: as §1

Neu5Ac(b2-6)GalNAc = target: Neu5Ac(b2-6)GalNAc
Outline: as §1

[28] = target: Neu5Ac9Ac(a2-3)Gal(b1-3)GlcNAc
Outline: as §1

[29] = target: Neu5Ac9Ac(a2-3)Gal(b1-4)GlcNAc
Outline: as §1

[30] = target: Neu5Ac9Ac(a2-6)Gal(b1-4)GlcNAc
Outline: as §1

[31] = target: Neu5Gc(a2-3)Gal(b1-3)GlcNAc
Outline: as §1

[32] = target: Neu5Gc(a2-3)Gal(b1-3)[Fuc(a1-4)]GlcNAc
Outline: as §1

Neu5Gc(a2-3)Gal(b1-4)Glc = target: Neu5Gc(a2-3)Gal(b1-4)Glc
Outline: as §1

[33] = target: Neu5Gc(a2-3)Gal(b1-4)GlcNAc
Outline: as §1

[34] = target: Neu5Gc(a2-3)Gal(b1-4)[Fuc(a1-3)]GlcNAc
Outline: as §1

[35] = target: Neu5Gc(a2-6)Gal(b1-4)GlcNAc
Outline: as §1

Neu5Gc(a2-6)GalNAc = target: Neu5Gc(a2-6)GalNAc
Outline: as §1

[36] = target: Neu5Gc(b2-6)Gal(b1-4)GlcNAc
Outline: as §1

B1: SBD (Rhizopus oryzae), P07683 (protein)
chain: ASIPSSASVQLDSYNYDGSTFSGKIYVKNIAYSKKVTVVYADGSDNWNNNGNIIAASFSGPISGSNYEYWTFSASVKGIKEFYIKYEVSGKTYYDNNNSANYQVS
B1 was tested, and the “glycan array binding signal (z-score)” value (Neu5Ac(a2-6)Gal) was -0.115, the “glycan array binding signal (z-score)” value (Neu5Ac(a2-6)Gal(b1-4)Glc) was -0.241 and the “glycan array binding signal (z-score)” value [1] was -0.304. For the same binder, the “glycan array binding signal (z-score)” value [2] was 0.242, the “glycan array binding signal (z-score)” value [3] was -0.457 and the “glycan array binding signal (z-score)” value [4] was -0.28. For the same binder, the “glycan array binding signal (z-score)” value [5] was -0.042, the “glycan array binding signal (z-score)” value [6] was -0.284 and the “glycan array binding signal (z-score)” value [7] was 0.329. For the same binder, the “glycan array binding signal (z-score)” value [8] was -0.232, the “glycan array binding signal (z-score)” value [9] was 0.228 and the “glycan array binding signal (z-score)” value [10] was 0.349. The “glycan array binding signal (z-score)” value [11] was 0.365, the “glycan array binding signal (z-score)” value [12] was -0.481 and the “glycan array binding signal (z-score)” value [13] was -0.661. For the same binder, the “glycan array binding signal (z-score)” value [14] was 0.625, the “glycan array binding signal (z-score)” value [15] was -0.291 and the “glycan array binding signal (z-score)” value [16] was 0.25. The “glycan array binding signal (z-score)” value [17] was -0.322, the “glycan array binding signal (z-score)” value (Neu5Ac(a2-6)GalNAc) was -0.318 and the “glycan array binding signal (z-score)” value [18] was -0.074. For the same binder, the “glycan array binding signal (z-score)” value [19] was 0.158, the “glycan array binding signal (z-score)” value [20] was 0.217 and the “glycan array binding signal (z-score)” value (Neu5Ac(a2-8)Neu5Ac) was -0.114. For the same binder, the “glycan array binding signal (z-score)” value [21] was -0.375, the “glycan array binding signal (z-score)” value [22] was -0.141 and the “glycan array binding signal (z-score)” value [23] was -0.257. The “glycan array binding signal (z-score)” value [24] was -0.33, the “glycan array binding signal (z-score)” value [25] was 0.32 and the “glycan array binding signal (z-score)” value [26] was -0.102. For the same binder, the “glycan array binding signal (z-score)” value [27] was -0.297, the “glycan array binding signal (z-score)” value (Neu5Ac(b2-6)GalNAc) was -0.157 and the “glycan array binding signal (z-score)” value [28] was -0.209. The “glycan array binding signal (z-score)” value [29] was 0.186, the “glycan array binding signal (z-score)” value [30] was -0.195 and the “glycan array binding signal (z-score)” value [31] was -0.163. For the same binder, the “glycan array binding signal (z-score)” value [32] was -0.421, the “glycan array binding signal (z-score)” value (Neu5Gc(a2-3)Gal(b1-4)Glc) was 0.014 and the “glycan array binding signal (z-score)” value [33] was 0.132. For the same binder, the “glycan array binding signal (z-score)” value [34] was -0.487, the “glycan array binding signal (z-score)” value [35] was -0.239 and the “glycan array binding signal (z-score)” value (Neu5Gc(a2-6)GalNAc) was 0.149. The “glycan array binding signal (z-score)” value [36] was -0.221.

From the supplement of paper PMC8728848
